In test [1] the target is T1, human CTU1 (cytosolic thiouridylase 1), 6xHis and Twin-Strep tagged (human) (UniProt Q7Z7A3).
T1 sequence: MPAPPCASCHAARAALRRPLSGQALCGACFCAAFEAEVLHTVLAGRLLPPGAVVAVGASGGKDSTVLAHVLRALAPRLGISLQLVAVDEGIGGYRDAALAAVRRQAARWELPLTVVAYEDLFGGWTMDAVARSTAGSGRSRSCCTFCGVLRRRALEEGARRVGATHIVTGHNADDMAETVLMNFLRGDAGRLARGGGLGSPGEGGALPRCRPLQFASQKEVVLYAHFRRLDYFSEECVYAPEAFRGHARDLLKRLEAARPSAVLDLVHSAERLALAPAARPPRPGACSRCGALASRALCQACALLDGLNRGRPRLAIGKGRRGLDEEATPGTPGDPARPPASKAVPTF
The experiment in a line: SEC. In general terms: SEC sorts molecules by how far they enter the pores of the column.

The target in test [2] is T1, human CTU1 (cytosolic thiouridylase 1), 6xHis and Twin-Strep tagged (human). The experiment in a line: pull-down.

Results are given in words; binding and its absence hold for the method and conditions named. For part of these data: In cells and extracts the contact can be indirect. Some results given as binding are weak or reduced against the parent protein; the word gives no strength. Sequences can lack the tags named with a protein.

B1: human CTU2 (cytosolic thiouridylase 2), wildtype, 6xHis tagged (protein, UniProt Q2VPK5 1-515)
chain: MCQVGEDYGEPAPEEPPPAPRPSREQKCVKCKEAQPVVVIRAGDAFCRDCFKAFYVHKFRAMLGKNRLIFPGEKVLLAWSGGPSSSSMVWQVLEGLSQDSAKRLRFVAGVIFVDEGAACGQSLEERSKTLAEVKPILQATGFPWHVVALEEVFSLPPSVLWCSAQELVGSEGAYKAAVDSFLQQQHVLGAGGGPGPTQGEEQPPQPPLDPQNLARPPAPAQTEALSQLFCSVRTLTAKEELLQTLRTHLILHMARAHGYSKVMTGDSCTRLAIKLMTNLALGRGAFLAWDTGFSDERHGDVVVVRPMRDHTLKEVAFYNRLFSVPSVFTPAVDTKAPEKASIHRLMEAFILRLQTQFPSTVSTVYRTSEKLVKGPRDGPAAGDSGPRCLLCMCALDVDAADSATAFGAQTSSRLSQMQSPIPLTETRTPPGPCCSPGVGWAQRCGQGACRREDPQACIEEQLCYSCRVNMKDLPSLDPLPPYILAEAQLRTQRAWGLQEIRDCLIEDSDDEAGQS
Consider B1, for which the binding entry in test [1] and in test [2] was “binds” throughout.

B2: human CTU2 H57A/R60A double mutant, 6xHis tagged (protein, UniProt Q2VPK5 1-515)
chain: MCQVGEDYGEPAPEEPPPAPRPSREQKCVKCKEAQPVVVIRAGDAFCRDCFKAFYVAKFAAMLGKNRLIFPGEKVLLAWSGGPSSSSMVWQVLEGLSQDSAKRLRFVAGVIFVDEGAACGQSLEERSKTLAEVKPILQATGFPWHVVALEEVFSLPPSVLWCSAQELVGSEGAYKAAVDSFLQQQHVLGAGGGPGPTQGEEQPPQPPLDPQNLARPPAPAQTEALSQLFCSVRTLTAKEELLQTLRTHLILHMARAHGYSKVMTGDSCTRLAIKLMTNLALGRGAFLAWDTGFSDERHGDVVVVRPMRDHTLKEVAFYNRLFSVPSVFTPAVDTKAPEKASIHRLMEAFILRLQTQFPSTVSTVYRTSEKLVKGPRDGPAAGDSGPRCLLCMCALDVDAADSATAFGAQTSSRLSQMQSPIPLTETRTPPGPCCSPGVGWAQRCGQGACRREDPQACIEEQLCYSCRVNMKDLPSLDPLPPYILAEAQLRTQRAWGLQEIRDCLIEDSDDEAGQS
For the molecule B2, the binding entry in test [1] is reported as “binds”.

For the origin of these results see article doi:10.1101/2025.10.24.684405.
